log2 fold change data for twelve compounds are collected here from the supplement of paper PMC10849652.

By UniProt entry, the sequences of proteins in these tests, tags left out. Where a name states a change or a piece, a line headed by the entry shows the natural chain unless it says otherwise.
UniProt Q6DD87: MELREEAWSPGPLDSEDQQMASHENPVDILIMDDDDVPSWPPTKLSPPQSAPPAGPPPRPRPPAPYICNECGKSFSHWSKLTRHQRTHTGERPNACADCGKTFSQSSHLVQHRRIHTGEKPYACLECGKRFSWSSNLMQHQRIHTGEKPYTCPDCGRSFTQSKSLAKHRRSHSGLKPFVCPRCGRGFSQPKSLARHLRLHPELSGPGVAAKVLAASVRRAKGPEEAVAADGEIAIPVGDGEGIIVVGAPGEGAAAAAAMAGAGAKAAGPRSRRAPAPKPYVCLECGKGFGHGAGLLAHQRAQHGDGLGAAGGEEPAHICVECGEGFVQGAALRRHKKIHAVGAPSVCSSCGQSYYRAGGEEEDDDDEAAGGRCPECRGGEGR

The structures appear in SMILES notation. Some of the results follow.

For the assay, the target named is ZNF787 (UniProt Q6DD87). The assay is described as follows: log2 fold change, soluble protein after heating vs DMSO (PISA); higher = thermal stabilisation; K562 cells, 10 uM, 30 min; active = over 0.2 and 3.5 SD of the protein, either way, in both replicates (recomputed). The gist of the method: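 K562 cells (2×10^6 cells/mL) were treated with 10 μM compound for 30 min, and aliquots were heated for 3 min over 48°C-58°C. Pooled aliquots were extracted in PBS with 0.5% NP-40 at 4°C, and the supernatant after 21,000xg for 90 min was measured by TMTpro 16plex LC-MS/MS with channel sums equalised. Reported thermal stability, relative to control samples and from duplicates, is a log2 fold change.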
With `CN1CC[C@H](c2c(O)cc(O)c3c(=O)cc(-c4ccccc4Cl)oc23)[C@H](O)C1` [alvocidib], the log2 fold change was inactive: 0.129.

On to `Cc1cc(SCc2sc(-c3ccc(C(F)(F)F)cc3)nc2C)ccc1OCC(=O)O`, for which the log2 fold change is inactive: -0.023.

As for `O=C1NC(=O)C(c2cnc3ccccn23)=C1c1cn2c3c(cc(F)cc13)CN(C(=O)N1CCCCC1)CC2`, the log2 fold change was inactive: 0.086.

`CC[C@H](C)n1cc(C)c2c(C(=O)NCc3c(C)cc(C)[nH]c3=O)cc(-c3ccc(N4CCNCC4)nc3)cc21`: the log2 fold change is inactive: -0.006.

As to `Cn1cc(-c2ccc3c(c2)CCN3C(=O)Cc2cccc(C(F)(F)F)c2)c2c(N)ncnc21`, the log2 fold change was inactive: -0.35.

As for `Cc1cc(Nc2cc(N3CCN(C)CC3)nc(Sc3ccc(NC(=O)C4CC4)cc3)n2)n[nH]1` [tozasertib], the log2 fold change is inactive: 0.023.

As for `CC(C)(O)CC(=O)NCCn1ccc2ncnc(Nc3ccc(Oc4cccc(C(F)(F)F)c4)c(Cl)c3)c21`, the log2 fold change was inactive: 0.079.

As for `O=C(Nc1cccc(Nc2ncc(Br)c(NCCc3cnc[nH]3)n2)c1)N1CCCC1`, the log2 fold change was inactive: -0.011.

With `C[C@H](Nc1ncnc2nc[nH]c12)c1cc2cccc(Cl)c2c(=O)n1-c1ccccc1` [duvelisib], the log2 fold change is inactive: -0.352.

Turning to `C[C@@H](N)c1ccc(C(=O)Nc2ccnc3[nH]ccc23)cc1`, the log2 fold change is inactive: 0.088.

Take `NC1(Cc2ccc(Cl)cc2)CCN(c2ncnc3[nH]ccc23)CC1`: the log2 fold change was inactive: -0.166.

`CC[C@H](C)[C@H](NC(=O)[C@H]([C@@H](C)CC)N(C)C(C)=O)C(=O)N[C@H](C(=O)N[C@@H](CC(C)C)C(=O)[C@@]1(C)CO1)[C@@H](C)O` [epoxomicin]: the log2 fold change was inactive: -0.134.
